No constants are given. Whether binding was seen depends on the method and setting. Sequences can lack the tags named with a protein.

The values that follow come from patent US20080235826A1.

The experiment concerns the target hepatitis C virus (HCV) protein NS5A(N), yeast two-hybrid fusion (hepatitis C virus). Kind of experiment: yeast two-hybrid, plate growth on Leu-drop out and X-gal media.

B1: PAPP5 (phytochrome-associated protein phosphatase 5), full-length, yeast two-hybrid fusion (enzyme, not shown: large carriers)
chain: METKNENSDVSRAEEFKSQANEAFKGHKYSSAIDLYTKAIELNSNNAVYWANRAFAHTKLEEYGSAIQDASKAIEVDSRYSKGYYRRGAAYLAMGKFKDALKDFQQVKRLSPNDPDATRKLKECEKAVMKLKFEEAISVPVSERRSVAESIDFHTIEVEPQYSGARIEGEEVTLDFVKTMMEDFKNQKTLHKRYAYQIVLQTRQILLALPSLVDISVPHGKHITVCGDVHGQFYDLLNIFELNGLPSEENPYLFNGDFVDRGSFSVEIILTLFAFKCMCPSSIYLARGNHESKSMNKIYGFEGEVRSKLSEKFVDLFAEVFCYLPLAHVINGKVFVVHGGLFSVDGVKLSDIRAIDRFCEPPEEGLMCELLWSDPQPLPGRGPSKRGVGLSFGGDVTKRFLQDNNLDLLVRSHEVKDEGYEVEHDGKLITVFSAPNYCDQMGNKGAFIRFEAPDMKPNIVTFSAVPHPDVKPMAYANNFLRMFN
Turning to B1, the binding entry was “no binding”.
